{"source": "paper PMC7862700", "note": "The list shows a part of the results, in another mix than the full data. At the low end of the ranking, values are background and their order means little."}
{"biological_target": "T1, ETS2 (UniProt P15036)", "T1 sequence": "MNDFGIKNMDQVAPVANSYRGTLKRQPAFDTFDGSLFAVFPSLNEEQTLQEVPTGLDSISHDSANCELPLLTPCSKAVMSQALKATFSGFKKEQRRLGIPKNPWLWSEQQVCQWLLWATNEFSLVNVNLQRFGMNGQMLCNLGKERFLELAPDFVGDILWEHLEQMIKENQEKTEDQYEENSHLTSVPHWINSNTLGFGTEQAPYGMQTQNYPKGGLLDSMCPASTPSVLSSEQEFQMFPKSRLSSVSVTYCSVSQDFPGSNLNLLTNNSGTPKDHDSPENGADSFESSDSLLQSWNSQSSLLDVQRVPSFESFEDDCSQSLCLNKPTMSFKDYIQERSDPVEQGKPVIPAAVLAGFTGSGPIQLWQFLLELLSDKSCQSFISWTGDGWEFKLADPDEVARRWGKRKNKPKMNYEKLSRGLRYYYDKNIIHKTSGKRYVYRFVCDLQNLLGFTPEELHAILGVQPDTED", "test": "DAPPL (digital affinity profiling via proximity ligation, sequencing)", "conditions": "10 mM Tris-HCl pH 7.5, 50 mM NaCl, 1 mM DTT, 4% glycerol, room temperature, 30 min; GST-TFs on glutathione beads, 16-mer random dsDNA library, 0.1% …; high values mean tight binding; double strand, one strand shown; scale: fold enrichment (6-mer frequency, TF over GST control)"}
{"sequence": "CTTTCA", "binding signal": 1.31}
{"sequence": "AAATGA", "binding signal": 1.29}
{"sequence": "GCCTAT", "binding signal": 1.09}
{"sequence": "CACTTG", "binding signal": 1.32}
{"sequence": "CTTGGA", "binding signal": 1.14}
{"sequence": "TGCCAA", "binding signal": 1.12}
{"sequence": "TCGCAA", "binding signal": 1.05}
{"sequence": "TCCCTC", "binding signal": 1.49}
{"sequence": "TTTCCT", "binding signal": 2.44}
{"sequence": "TTGACA", "binding signal": 1.4}
{"sequence": "AATGGC", "binding signal": 1.39}
{"sequence": "AAGTAC", "binding signal": 1.59}
{"sequence": "GTTTCG", "binding signal": 1.15}
{"sequence": "TCTTAG", "binding signal": 1.13}
{"sequence": "TTAATG", "binding signal": 1.2}
{"sequence": "GTATTA", "binding signal": 1.07}
{"sequence": "ACCACC", "binding signal": 1.15}
{"sequence": "CTTCGC", "binding signal": 1.42}
{"sequence": "AATCGA", "binding signal": 0.998}
{"sequence": "TACTAC", "binding signal": 1.34}
{"sequence": "CCTCAT", "binding signal": 1.29}
{"sequence": "TGAACC", "binding signal": 1.24}
{"sequence": "TGCAAC", "binding signal": 1.28}
{"sequence": "CCACGC", "binding signal": 1.24}
{"sequence": "ATCGCC", "binding signal": 1.3}
{"sequence": "CCGGAA", "binding signal": 5.63}
{"sequence": "ATATTA", "binding signal": 1.06}
{"sequence": "TTGGCC", "binding signal": 1.01}
{"sequence": "TTTTTA", "binding signal": 1.34}
{"sequence": "TATCAG", "binding signal": 1.15}
{"sequence": "TAAGAT", "binding signal": 1.19}
{"sequence": "CCATTT", "binding signal": 1.41}
{"sequence": "CTTACG", "binding signal": 1.13}
{"sequence": "GATTCC", "binding signal": 1.14}
{"sequence": "TATCTA", "binding signal": 1.26}
{"sequence": "TAGTAC", "binding signal": 1.17}
{"sequence": "ACATTG", "binding signal": 1.17}
{"sequence": "GAACAC", "binding signal": 1.12}
{"sequence": "TTGTGG", "binding signal": 1.36}
{"sequence": "CGAGCT", "binding signal": 1.07}
